The assay is described as follows: P. falciparum Dd2 blood-stage growth inhibition, SYBR Green DNA fluorescence, 384-well dose response (AID 1159575). As to conditions: P. falciparum Dd2 in erythrocytes, 72 h; at 10 µM (top of the series).

SMILES strings stand for the structures. The list shows a part of the results. Measured potencies and affinities stand elsewhere. Entries without a call are filed as inconclusive in the source.

On to `COc1ccc(-c2ccccc2[C@H]2[C@@H](CO)N(C(=O)C3CCCC3)[C@H]2C#N)cc1`, for which the activity change, negative = inhibition was -5.67%.

The values above are taken from PubChem BioAssay AID1159575 (Broad Institute, 2015).
